In PubChem BioAssay AID587 (National Center for Advancing Translational Sciences (NCATS), 2007):
The whole screen tested about 59,000 compounds, of which about 35 (0.06%) were called active. Inconclusive results, whose numbers are uncertain, are shown with a selection of clear calls. Rule as the data show it: active = max dye-equivalent concentration above about 10 nM; inconclusive = between about 1.1 nM and that limit; inactive = weaker than that.

experiment: qHTS Assay for Spectroscopic Profiling in Texas Red Spectral Region; details: Compound fluorescence, Texas Red channel, 547/618 nm; active compounds read high
Source text: NIH Molecular Libraries Screening Centers Network [MLSCN] NIH Chemical Genomics Center [NCGC] […] Occasionally, the artifactual effect may originate from the compound#s own spectral or other biophysical properties which generally tend to track its assay concentration. Pre-screening/profiling the library with respect to the compounds# spectral properties should help one exclude false positives early on. While the most informative fluorescent profiling data set is obtained by performing a full excitation and emission scan of each well by using a monochromator-based plate reader, such an approach is practical only on a very limited scale as scanning each well requires long time. An alternative approach, applied here, is to perform plate reader scans using selected excitation and emission wavelength pairs to generate a multidimensional relational database that correlates compound concentration and the respective relative fluorescence intensity at a given wavelength set. A standard curve of Texas Red (TR) present on each plate as six-point concentration series, was used to compute a normalized fluorescence response, termed dye-equivalent concentration, for each compound at each concentration.
NCGC Assay Protocol Summary: Buffer: 100 mM Tris buffer, pH 8.0 Dye standard plate: The wells in columns 1 through 4 of a Kalypsys polypropylene 1536-well compound plate were filled with standard solutions of fluorophore corresponding to the spectral region of interest. Solutions of TR were placed in the following wells: U1, V1: 3 mM, U2, V2: 300 uM, U3, V3: 30 uM, U4, V4: zero (DMSO), W1, X1: 3 uM, W2, X2: 900 nM, W3, X3: 300 nM, W4, X4: zero (DMSO). Assay Steps: Six uL of buffer were dispensed to 1536-well Greiner black plates. Compounds and dye standards (23 nL) were transferred via Kalypsys PinTool. The plates were incubated for 15 min at room temperature, and then read on ViewLux (Perkin-Elmer) High-throughput CCD imager using 547 nm and 618 nm excitation and emission filter set. Keywords: NIH Roadmap, MLSCN, MLI, MLSMR, qHTS, NCGC, Texas Red, Fluorescent Profiling.

| SMILES | max dye-equivalent concentration |
| --- | --- |
| NCC1CCC(C(=O)O)CC1 (configuration not stated) | inconclusive: 1.1 nM |
| O=C(NCc1ccco1)c1cnn2c(C(F)F)cc(-c3ccccc3)nc12 | inconclusive: 1.7 nM |
| Cc1ccc(NC(=O)C2(N(CC(C)C)C(=O)Cn3nnnc3N)CCCCC2)cc1 | inactive |
| CCC(CO)NCc1ccc2c(c1)n(C)c(=O)n2C (configuration not stated) | inconclusive: 2.2 nM |
| N#CCSc1nnc(COc2cccc3ccccc23)n1-c1cccc(Cl)c1 | inconclusive: 1.3 nM |
| CCOC(=O)c1cccc(NC(=O)c2cc3sccc3n2C)c1 | inconclusive: 1.6 nM |
| COc1ccc(S(=O)(=O)Cc2ccc(C(=O)NCCCN(C)c3ccccc3)o2)cc1 | inconclusive: 1.1 nM |
| COc1ccc2[nH]c3ccc(OC)cc3c2c1 | inconclusive: 1.8 nM |
| O=C1C2CC=CCC2C(=O)N1c1ccc(OCC(O)Cn2nnc3ccccc32)cc1 (configuration not stated) | inconclusive: 1.5 nM |
| Cc1cc(-n2c(SCC(=O)NCc3cccs3)nc3n[nH]c(C)c3c2=N)ccc1Cl | inconclusive: 1.3 nM |
| O=S1(=O)N=C(N2CCOCC2)c2ccccc21 | inconclusive: 2.5 nM |
| Cc1cccc2nc(CSc3nnnn3-c3ccccc3)cn12 | inconclusive: 1.6 nM |
| Cc1c(NC(=O)CSc2ccc3c(c2)OCCO3)c(=O)n(-c2ccccc2)n1C | inconclusive: 3.2 nM |
| CCOC(=O)c1c(C)[nH]c(C)c1C(=O)COC(=O)C1CCCN1S(=O)(=O)c1ccccc1F (configuration not stated) | inconclusive: 1.3 nM |
| CCCCCC[C@@H]([C@H](C)O)n1cnc2c(N)ncnc21 | inconclusive: 1.1 nM |
| CCC(OC(=O)c1nsc(Cl)c1Cl)C(=O)NCc1ccco1 (configuration not stated) | inconclusive: 2.3 nM |
| O=C(NC1CC1)C1C2C3C4CC5C3C5C4C12 (configuration not stated) | inconclusive: 1.1 nM |
| CCN(C(=O)COC(=O)c1cnc(C)cn1)C1CCCCC1 | inconclusive: 1.4 nM |
| CN1CCN([C@@H]2Cc3ccccc3Sc3ccc(Cl)cc32)CC1 | inactive |
| O=C(COc1ccccc1Cl)N1CCN(c2ccc(F)cc2)CC1 | inconclusive: 1.2 nM |
| CCOC(=O)c1c(CN2CCN(C)CC2)oc2ccc(O)cc12 | inconclusive: 1.1 nM |
| COC(=O)c1cc(-c2c(C)nn(-c3ccccc3)c2C)n[nH]1 | inconclusive: 1.2 nM |

| SMILES | max dye-equivalent concentration |
| --- | --- |
| Cn1c2ccccc2c(=O)n2c(=O)c3ccccc3cc12 | inactive |
| Cn1c(SCC2CCCO2)nnc1-c1ccncc1 (configuration not stated) | inconclusive: 1.6 nM |
| CCCOc1ccc(CC(=O)NCc2ccco2)cc1OC | inconclusive: 1.4 nM |
| O=C(Nc1nc(SCc2ccc(F)cc2)ns1)c1ccco1 | inconclusive: 1.2 nM |
| CCN1C(=O)C2(C(C#N)=C(N)Oc3n[nH]c(COC)c32)c2ccccc21 (configuration not stated) | inconclusive: 1.2 nM |
| COc1ccc(-c2nc(CN3CCC(C(=O)NC(C)C)CC3)c(C)o2)cc1OC | inconclusive: 1.4 nM |
| C1=CCC(/C=N/n2cnnc2)CC1 (configuration not stated) | inconclusive: 1.3 nM |
| N#CCSc1nnc(COc2ccc3ccccc3c2)o1 | inconclusive: 1.3 nM |
| CCN(CC)S(=O)(=O)c1ccc2[nH]cc(C(=O)NCCN3CCCCCC3)c(=O)c2c1 | inconclusive: 2 nM |
| COc1ccc(-c2cc(C(F)F)n3ncc(C(=O)N4CCN5CCCC5C4)c3n2)cc1 (configuration not stated) | inactive |
| CCN(CC)CCNC(=O)c1ccccc1N | inconclusive: 1.2 nM |
| CCOc1cc(N2CCOCC2)c(OCC)cc1NC(=O)CCC1CCCC1 | inconclusive: 2.1 nM |
| CCCC(=O)N1CCc2cc(-c3nc(N)sc3C)ccc21 | inconclusive: 1.3 nM |
| CCOC(=O)C1CCN(S(=O)(=O)c2ccc(C(=O)OC)cc2)CC1 | inconclusive: 1.3 nM |
| Cc1ccc(CSc2nnnn2C)cc1 | inconclusive: 1.2 nM |
| Cc1nc(SCC(=O)c2c(C)[nH]c3ccccc23)c2c(=O)n(C)c(=O)n(CC(C)C)c2n1 | inconclusive: 2.9 nM |
| Cc1cnc(CNc2ncnc3ccc(-c4ccccc4C(F)(F)F)cc23)cn1 | inconclusive: 1.1 nM |
| CCCNC(=O)CCC(=O)Nc1ncc(-c2ccc(C)cc2)n1C | inconclusive: 1.6 nM |
| CCn1c(SCCN2CCCCC2)nnc1-c1ccc(S(=O)(=O)N2CCOCC2)cc1 | inconclusive: 1.5 nM |
| N=C1C(c2ccccc2)=C(O)CN1c1ccc2c(c1)OCO2 | inconclusive: 1.5 nM |
| C/C(=C\c1ccco1)C1C(C#N)=C(N)OC2=C1C(=O)CC(C)(C)C2 (configuration not stated) | inconclusive: 2.8 nM |
| O=C(CSc1nc(-c2ccccc2)cs1)Nc1nccs1 | inconclusive: 1.1 nM |

| SMILES | max dye-equivalent concentration |
| --- | --- |
| Cn1cnnc1SCC(=O)NC(=O)NC1CCCC1 | inconclusive: 1.1 nM |
| O=c1c(-c2ccc(Cl)cc2)[n+]([O-])c2ccccc2n1O | inactive |
| COc1cccc(-c2ccc3ncnc(NCc4ccc(OC)cc4OC)c3c2)c1 | inactive |
| O=c1[nH]c2ccc(Cl)cc2c(-c2ccccc2)c1CN1CCOCC1 | inconclusive: 1.3 nM |
| CC(C)CCNC(=O)C(c1cccs1)N(CC1CCCO1)C(=O)Cn1nnc2ccccc21 (configuration not stated) | inconclusive: 1.5 nM |
| COc1ccccc1C1CC(=O)Nc2cc3c(cc21)OCCO3 (configuration not stated) | inconclusive: 1.1 nM |
| O=C(CCS(=O)(=O)c1cccc2nsnc12)N1CCN(Cc2ccc3c(c2)OCO3)CC1 | inconclusive: 1.3 nM |
| C/C(=C\CNc1ncnc2c1ncn2[C@@H]1O[C@@H](CO)[C@@H](O)[C@H]1O)CO | inactive |
| Cc1cccc(NC(=O)C2CCCN(C(=O)Nc3ccccc3)C2)c1C (configuration not stated) | inconclusive: 1.5 nM |
| O=C(CCCC(=O)N(CC(=O)NC1CCCCC1)Cc1ccc2c(c1)OCO2)Nc1ccccn1 | inconclusive: 1.4 nM |
| COc1ccc(CNc2ncncc2-c2ccc(C(=O)N(C)C)cc2)c(OC)c1 | inactive |
| CN(C)CC/C=C1\c2ccccc2CSc2ccccc21 | inconclusive: 1.2 nM |
| Cc1nc(Cc2nnc(SCc3nc(N)nc(Nc4ccccc4C)n3)o2)cs1 | inconclusive: 1.6 nM |
| O=C(Nc1nonc1NC(=O)C1CCCCC1)C1CCCCC1 | inconclusive: 1.3 nM |
| COC(=O)[C@@H](NC(=O)c1cc(-c2ccccc2)nc2ccccc12)c1ccccc1 | inactive |
| CN(Cc1ccccc1)C(=O)c1ccc2c(c1)OCO2 | inconclusive: 1.1 nM |
| CCN(C(=O)CN1CCCc2ccccc21)c1c(N)n(Cc2ccccc2)c(=O)[nH]c1=O | inconclusive: 1.1 nM |
| CCN(CC)c1nc(SCC(=O)O)nc(N(CC)CC)n1 | inconclusive: 2.3 nM |
| O=C1NC(c2ccccn2)Nc2sc3c(c21)CCC3 (configuration not stated) | inconclusive: 1.6 nM |
| Cc1cc(NC(=O)CSc2nnnn2Cc2ccccc2)no1 | inconclusive: 1.7 nM |
| COc1cc(C)c(S(=O)(=O)Nc2ccccc2F)cc1C | inconclusive: 2.1 nM |
| Cc1nc2c(C(=O)NCCc3ccccc3)c[nH]n2c(=O)c1Cl | inconclusive: 1.6 nM |

| SMILES | max dye-equivalent concentration |
| --- | --- |
| CCN(CC(=O)NC(C)C)C(=O)CCNC(=O)c1ccc(Cl)cc1 | inactive |
| COC(=O)c1cc(OC)c(OC)cc1NC(=O)Nc1ccc(OC)cc1OC | inconclusive: 1.1 nM |
| CCOC(=O)CC(=O)CSc1ccc2nnc(-c3cccc(F)c3)n2n1 | inconclusive: 1.3 nM |
| CCCCNC(=O)c1cc2c(=O)n3cccc(C)c3nc2n(Cc2ccccc2)c1=N | inconclusive: 1.2 nM |
| CN1CCN(c2nc3c(c(=O)n(C)c(=O)n3C)n2C)CC1 | inconclusive: 1.2 nM |
| Cc1occc1-c1nnc(SCC(=O)c2ccc(F)cc2)n1Cc1ccco1 | inconclusive: 1.3 nM |
| CN(C)Cc1nc2c(c(=O)[nH]1)C1(CCCCC1)Cc1ccccc1-2 | inconclusive: 1.1 nM |
| CCOC(=O)CSc1cc(=O)n(C)c2cc(Cl)ccc12 | inconclusive: 1.3 nM |
| COCCN(CC(=O)Nc1ccccc1C)S(=O)(=O)c1ccc(S(=O)(=O)N2CCCC2)cc1 | inconclusive: 1.1 nM |
| COCCCN1C(=O)C(=O)/C(=C(/O)c2ccccc2)C1c1ccc(N(C)C)cc1 (configuration not stated) | inconclusive: 2.1 nM |
| CC(=O)c1cc(C#N)c(SCCC(C)C)nc1C | inconclusive: 1.2 nM |
| COc1cc(C(=O)N(Cc2ccco2)Cc2cc3ccccc3[nH]c2=O)cc(OC)c1OC | inconclusive: 1.5 nM |
| O=C(CSc1nnnn1-c1cccnc1)NCc1cccs1 | inconclusive: 1.7 nM |
| CCn1c(SCC(=O)Nc2nc(C)cs2)nnc1-c1ccco1 | inconclusive: 1.5 nM |
| CC1CN(S(=O)(=O)c2ccc(NC(=O)CCN3C(=O)c4ccccc4C3=O)cc2)CC(C)O1 (configuration not stated) | inconclusive: 1.9 nM |
| COc1ccc(OC)c(C2NC(=O)c3sc(=S)n(-c4ccccc4)c3N2)c1 (configuration not stated) | inconclusive: 1.3 nM |
| CC(Sc1cccc(C(F)(F)F)c1)C(=O)NC(N)=O (configuration not stated) | inconclusive: 1.5 nM |
| CC(C)[C@H](CO)Nc1nc(Nc2cccc(Cl)c2)c2ncn(C(C)C)c2n1 | inactive |
| CCOC(=O)c1ccc(Nc2ccc(-c3ccc(OC)c(OC)c3)nn2)cc1 | inconclusive: 1.2 nM |
| O=c1[nH]c(SCc2cccc([N+](=O)[O-])c2)nc2nc[nH]c12 | inactive |
| O=C(CSc1nnc(COc2ccccc2)n1Cc1ccco1)c1ccc(F)cc1 | inconclusive: 1.3 nM |

Quoted at random: 2 entries already listed, in no set order.

| SMILES | max dye-equivalent concentration |
| --- | --- |
| CCN(CC)c1nc(SCC(=O)O)nc(N(CC)CC)n1 | inconclusive: 2.3 nM |
| COc1cccc(-c2ccc3ncnc(NCc4ccc(OC)cc4OC)c3c2)c1 | inactive |

Individual results from above:
max dye-equivalent concentration with O=c1[nH]c(SCc2cccc([N+](=O)[O-])c2)nc2nc[nH]c12 is entered as inactive
max dye-equivalent concentration with COc1cc(C(=O)N(Cc2ccco2)Cc2cc3ccccc3[nH]c2=O)cc(OC)c1OC is entered as inconclusive: 1.5 nM
